# Measured values published in US11442057B2, “Method for screening anticancer agent inhibiting binding of AIMP2-DX2 and HSP70” (MEDICINAL BIOCONVERGENCE RESEARCH CENTER, priority 2016, dated 2022).
# At least one compound was matched to its structure with a doubt left.
# System: AIMP2-DX2 protein
# Test: Western blot of AIMP2-DX2 protein expression level in H460 cells
# Assay type: cell-based, human
# Details: HSP70 or HSP90 inhibitor treatment
smiles,measurement,value
"COC1=C2C[C@@H](C)C[C@H](OC)[C@H](O)[C@@H](C)/C=C(\C)[C@H](OC(N)=O)[C@@H](OC)/C=C\C=C(/C)C(=O)NC(=CC1=O)C2=O [Gel, Geldanamycin]",expression level of AIMP2-DX2 protein after inhibitor treatment,not affected
